Among the data in patent US10766894B2, “Aza-indazole compounds for use in tendon and/or ligament injuries” (NOVARTIS AG, priority 2016, dated 2020) are EC50 values, retold here.

The subject of experiment [1] is Tenomodulin (Tnmd) gene expression in rat tail tendon fascicles. Nature of the experiment: Ex vivo assay, tendon fascicles, Tenomodulin mRNA (qPCR). Format: cell-based, Sprague Dawley rat. As to conditions: 96 h, read-out: Ex vivo Tnmd (EC50 uM). (In general: Quantitative PCR measures a nucleic acid by following its amplification.)
Experiment [2] relates to mouse immortalized TT-D6 Scx-luciferase (ScxL) cell line; transcriptional activation of Scleraxis (Scx) gene. Put plainly: SCX-LUC in vitro assay (scleraxis promoter luciferase reporter). The experiment is classed as cell-based. As to conditions: 96 h, read-out: Scx-Luc (EC50 uM).
Experiment [3] has as its system collagen type 1 (Col1a2) gene expression in rat tail tendon fascicles. Put plainly: Ex vivo assay, tendon fascicles, collagen type 1 mRNA (qPCR). The experiment is classed as cell-based, Sprague Dawley rat. As to conditions: 96 h, read-out: Ex vivo Col1a2 (EC50 uM).

Each structure is given as a SMILES string.

As a reminder, the EC50 is the concentration at which the effect is half-maximal. For `C[C@@H]1CCN(C(=O)CC#N)C[C@@H]1N(C)c1ncnc2[nH]ccc12` [reference compound], the results for the EC50 in experiment [1], in experiment [2] and in experiment [3] were 1.26 µM, 0.37 µM and 2.75 µM, respectively.
